Test results from the supplement of paper PMC6289059.
The list shows a part of the results. Repeats are few or missing, and single values can be far off.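 Hepatocyte-like cells derived from human stem cells with CRISPR-disrupted DGUOK model liver mtDNA depletion syndrome. Each well's ATP signal was scored against other wells on the same plate, and drugs scoring 3 or above were primary hits.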

Tested on: DGUOK Δ14/Δ5 iPSC-derived hepatocyte-like cells (SV20)
Test: ATP level (CellTiter-Glo luminescence) Z score relative to plate distribution, under 2-DG glycolysis block; higher = more cellular ATP (rescue of mitochondrial ATP production)
Conditions: 5 µM; treatment time: day 15 to day 20 of differentiation (5 days); 2-deoxy-D-glucose: 20 mM for 24 h before assay

Structure (SMILES) | ATP level
C/C=C(/C)C(=O)O[C@H]1CC[C@@]2(C)[C@@H]3CC[C@H]4[C@]5(O)C[C@H](O)[C@@]6(O)[C@@H](CN7C[C@@H](C)CC[C@H]7[C@@]6(C)O)[C@]5(O)C[C@]42O[C@]13O | inactive: -6.71
CC(=O)OCC1=C(C(=O)O)N2C(=O)[C@@H](N)[C@H]2SC1 | inactive: 2.82
COc1cc2c(cc1OC)[C@@H]1C(=O)c3ccc4oc(C(C)C)cc4c3O[C@@H]1CO2 | inactive: -8.93
CC(=O)[C@H]1CC[C@H]2[C@@H]3CC[C@@H]4C[C@H](O)CC[C@]4(C)[C@H]3CC[C@]12C | inactive: 2.31
C[N+]12CCC(CC1)C(OC(=O)C(O)(c1ccccc1)c1ccccc1)C2 (stereo not drawn) | inactive: -3.49
O=C(O)CCC1NCC2CC1CN1CCCCC21 (stereo not drawn) | inactive: -0.298
OC[C@@H](O)[C@H]1O[C@@H]2O[C@H](C(Cl)(Cl)Cl)O[C@@H]2[C@H]1O | inactive: 1.13
COC(=O)/C(C)=C\C[C@@]12OC(C)(C)[C@@H]3C[C@@H](C=C4C(=O)c5c(O)c6c(c(CC=C(C)C)c5O[C@]431)O[C@](C)(CCC=C(C)C)C=C6)C2=O | inactive: -0.896
COc1cc2c(cc1-c1cc3cc4ccoc4cc3oc1=O)OCO2 | inactive: -1.5
CN(C)C(=S)SSC(=S)N(C)C | active: 4.31
O=C1NC(=O)C(=O)C(=O)N1 | inactive: -4.98
OCC(Br)(Br)Br | inactive: 0.952
CC(C)(C)NCC(O)c1ccccc1Cl (stereo not drawn) | inactive: 1
CCC(C)(C)O | inactive: -0.296
CC[C@H]1CN2CCc3cc(OC)c(OC)cc3[C@@H]2C[C@@H]1C[C@H]1NCCc2cc(OC)c(OC)cc21 | inactive: -26.5
CC(C)(C)C(=O)C(Oc1ccc(Cl)cc1)n1cncn1 (stereo not drawn) | inactive: -4.96
CNC(C)C(O)c1ccccc1 (stereo not drawn) | inactive: 0.368
COc1cc([C@@H]2c3cc4c(cc3[C@H](O)[C@H]3COC(=O)[C@H]23)OCO4)cc(OC)c1OC | inactive: -2.36
CCNC1(c2cccs2)CCCCC1=O (stereo not drawn) | inactive: 0.239
Cc1ccc(O)cc1.Cc1cccc(O)c1.Cc1ccccc1O | inactive: -1.39
CS(=N)(=O)CC[C@H](N)C(=O)O (stereo partly drawn) | inactive: 2.2
CC[C@H]1[C@@H]2C[C@H]3[C@@H]4N(C)c5ccccc5[C@]45C[C@@H]([C@@H]2[C@H]5O)N3[C@@H]1O | inactive: 0.593

Structure (SMILES) | ATP level
C[C@@H]1CC[C@H]2[C@@H](C)C(=O)O[C@@H]3O[C@@]4(C)CC[C@@H]1[C@]32OO4 | inactive: -0.63
COc1ccc2c(c1)[nH]c1c(C)nccc12 | inactive: 0.653
CC1(C)C(C=C(Cl)Cl)C1C(=O)OCc1cccc(Oc2ccccc2)c1 (stereo not drawn) | inactive: -0.643
O=C1c2ccccc2C(=O)c2ccccc21 | inactive: -2.42
CNC(C)[C@H](O)c1ccccc1 (stereo partly drawn) | inactive: 0.211
NCCc1c[nH]c2ccc(O)cc12 | inactive: -2.78
CCN(C(C)=O)c1cccc(-c2ccnc3c(C#N)cnn23)c1 | active: 3.95
O=[N+]([O-])c1ccc([As](=O)(O)O)cc1 | active: 7.39
CCC(COC(=O)c1cc(OC)c(OC)c(OC)c1)(c1ccccc1)N(C)C (stereo not drawn) | active: 3.54
C[C@]12CC[C@H]3[C@@H](CC[C@@]45O[C@@H]4C(O)=C(C#N)C[C@]35C)[C@@H]1CC[C@@H]2O | inactive: -0.833
O=C(N/N=C/c1ccc([N+](=O)[O-])o1)c1cc([N+](=O)[O-])cc([N+](=O)[O-])c1O | inactive: 0.319
COc1ccc(Cc2nccc3cc(OC)c(OC)cc23)cc1OC | inactive: 1.73
COc1ccc(C=O)cc1 | inactive: -0.918
COc1cc2c(c(OC)c1OC)-c1ccc(=O)c(O)cc1[C@@H](NC(C)=O)CC2 | inactive: -0.256
CCC1(CC)C(=O)C=CNC1=O | inactive: -0.348
C[C@@H]1NCCc2cc(O)c(O)cc21 | inactive: 2.92
O=C(NC(=O)c1c(F)cccc1F)Nc1cc(Cl)c(OC(F)(F)C(F)C(F)(F)F)cc1Cl (stereo not drawn) | inactive: 0.221
CNCC(=O)c1ccc(O)c(O)c1 | active: 3.02
COc1cc2c(cc1OC)[C@H](C)NCC2 | inactive: 1.8
COc1cc2c(cc1OC)[C@@]13CCN4CC5=CCO[C@H]6CC(=O)N2[C@H]1[C@H]6[C@H]5C[C@H]43 | inactive: -0.1
C[C@H](N)Cc1ccccc1 | inactive: -0.87
CC(C)(C)NCC(O)c1cc(Cl)c(N)c(Cl)c1 (stereo not drawn) | inactive: 0.883

Structure (SMILES) | ATP level
COC(=O)C1=CCCN(C)C1 | inactive: -5.27
C=C(C)[C@H]1Cc2c(ccc3c2O[C@@H]2COc4cc(OC)c(OC)cc4[C@@H]2C3=O)O1 | inactive: -13.9
CC(=O)O[C@H]1C[C@H](O[C@H]2[C@@H](O)C[C@H](O[C@H]3[C@@H](O)C[C@H](O[C@H]4CC[C@@]5(C)[C@H](CC[C@@H]6[C@@H]5C[C@@H](O)[C@]5(C)[C@@H](C7=CC(=O)OC7)CC[C@]65O)C4)O[C@@H]3C)O[C@@H]2C)O[C@H](C)[C@H]1O[C@@H]1O[C@H](CO)[C@@H](O)[C@H](O)[C@H]1O | inactive: -17.5
O=C1C=C2C(=CCOC2O)O1 (stereo not drawn) | active: 3.55
COc1ccc(CCN2CCC(Nc3nc4ccccc4n3Cc3ccc(F)cc3)CC2)cc1 | inactive: -8.11
CC1=C2[C@H]3OC(=O)[C@@H](C)[C@@H]3CC[C@@]2(C)C=CC1=O | inactive: 0.929
CCC(N)C(O)c1ccc(O)c(O)c1 (stereo not drawn) | inactive: -0.693
Oc1cc(Cl)ccc1Oc1ccc(Cl)cc1Cl | inactive: 0.845
CC1(C)C(C=C(Cl)Cl)C1C(=O)OC(C#N)c1cccc(Oc2ccccc2)c1 (stereo not drawn) | inactive: -1.89
c1cncc(C2=NCCC2)c1 | inactive: 0.00614
Cc1nccc2c1[nH]c1ccccc12 | inactive: -0.385
C[C@]12C=CC(=O)C=C1CC[C@@H]1[C@@H]2CC[C@]2(C)C(=O)CC[C@@H]12 | inactive: -0.541
CCN1C[C@]2(COC)[C@H](O)C[C@H](OC)[C@@]34[C@@H]5C[C@@]6(O)[C@H](OC(=O)c7ccccc7)[C@@H]5[C@@](OC(C)=O)([C@@H]([C@H](OC)[C@H]23)[C@@H]14)[C@@H](O)[C@@H]6OC | inactive: -1.56
CC[C@@]1(O)C[C@H](O[C@H]2C[C@H](N(C)C)[C@H](O)[C@H](C)O2)c2c(cc3c(c2O)C(=O)c2c(O)ccc(O)c2C3=O)[C@H]1C(=O)OC | active: 6.21
O=[N+]([O-])c1cc([As](=O)(O)O)ccc1O | inactive: -3.81
CCC1(c2ccc(N)cc2)CCC(=O)NC1=O (stereo not drawn) | inactive: 0.232
CCN(C)C(=O)Oc1cccc([C@H](C)N(C)C)c1 | inactive: -3.76
C[C@@H](N)[C@@H](O)c1ccccc1 | inactive: 0.0724
CN(C)C(=O)Oc1cc(OC(=O)N(C)C)cc(C(O)CNC(C)(C)C)c1 (stereo not drawn) | inactive: -1.47
NCCc1ccc(O)cc1 | inactive: 2.5
CC[C@@H](c1cccc(O)c1)[C@@H](C)CN(C)C | inactive: -1.85
C[N+]1(C)[C@@H]2C[C@@H](OC(=O)[C@H](CO)c3ccccc3)C[C@H]1[C@@H]1O[C@@H]12 | inactive: 1.03

Part of the list above, as tab-separated lines.
Structure (SMILES)	ATP level
C=C(C)[C@H]1Cc2c(ccc3c2O[C@@H]2COc4cc(OC)c(OC)cc4[C@@H]2C3=O)O1	inactive: -13.9
CC(=O)O[C@H]1C[C@H](O[C@H]2[C@@H](O)C[C@H](O[C@H]3[C@@H](O)C[C@H](O[C@H]4CC[C@@]5(C)[C@H](CC[C@@H]6[C@@H]5C[C@@H](O)[C@]5(C)[C@@H](C7=CC(=O)OC7)CC[C@]65O)C4)O[C@@H]3C)O[C@@H]2C)O[C@H](C)[C@H]1O[C@@H]1O[C@H](CO)[C@@H](O)[C@H](O)[C@H]1O	inactive: -17.5

(next part)

Structure (SMILES) | ATP level
C[C@]12CC[C@H](O)C[C@@H]1CC[C@@H]1[C@@H]2CC[C@]2(C)C(=O)CC[C@@H]12 | inactive: -0.131
CCn1cc(C(=O)O)c(=O)c2cc3c(cc21)OCO3 | inactive: -4.76
C[N+]1([O-])[C@@H]2CC[C@H]1C[C@@H](OC(=O)C(CO)c1ccccc1)C2 (stereo partly drawn) | inactive: 2.05
[N-]=[N+]=CC(=O)OC[C@H](N)C(=O)O | active: 3.24
N=C1NC(=O)N2CC12 (stereo not drawn) | active: 3.63
C[C@@H]1O[C@@H](O[C@H]2C[C@@H](O)[C@]3(CO)[C@H]4[C@H](O)C[C@]5(C)[C@@H](C6=CC(=O)OC6)CC[C@]5(O)[C@@H]4CC[C@]3(O)C2)[C@H](O)[C@H](O)[C@H]1O | inactive: -6.87
COc1ccc2c3c([nH]c2c1)C(C)=NCC3 | inactive: -6.24
Oc1ccc(Cl)cc1Cc1cc(Cl)ccc1O | inactive: -7.37
Cl[C@H]1[C@H](Cl)[C@@H](Cl)[C@@H](Cl)[C@H](Cl)[C@H]1Cl | inactive: -2.57
CC(O)CN1CCN(CC(=O)[O-])CCN(CC(=O)[O-])CCN(CC(=O)[O-])CC1.[Gd+3] (stereo not drawn) | inactive: 0.778
COc1cc([C@@H]2c3cc4c(cc3[C@@H](O)[C@H]3COC(=O)[C@H]23)OCO4)cc(OC)c1O | inactive: -10.1
C[C@@]12C(=O)OC(=O)[C@]1(C)[C@H]1CC[C@@H]2O1 | inactive: -14.1
COC(C)(C)CCC[C@H](C)C/C=C/C(C)=C/C(=O)OC(C)C | inactive: 2.04
CCCC(C)(COC(N)=O)COC(=O)NC(C)C (stereo not drawn) | inactive: -0.128
C[N+]1(C)CCCC(OC(=O)C(O)(c2ccccc2)c2ccccc2)C1 (stereo not drawn) | inactive: 0.504
COc1cc(OC)c(OC)cc1C=O | inactive: 1.15
C#CC(C)(O)CC (stereo not drawn) | inactive: -1.67
CC(=O)O[C@@H]1C[C@H]2C(C)(C)C(=O)C=C[C@]2(C)[C@H]2CC[C@]3(C)C(=CC(=O)O[C@H]3c3ccoc3)[C@@]21C | inactive: -5.98
COc1cc2c(cc1O)C[C@H]1c3c(cc(O)c(OC)c3-2)CCN1C | inactive: 1.24
CC1(C)C(=O)C=C[C@@]2(C)C1=C(O)C(=O)[C@]1(C)[C@@H]2CC[C@@]2(C)[C@H](c3ccoc3)C[C@H]3O[C@]321 | inactive: 1.34
O=C1CCO1 | active: 5.91
Cc1c(O)c(O)cc2c1CC=C1[C@@]2(C)CC[C@@]2(C)[C@@H]3C[C@](C)(C(=O)O)CC[C@]3(C)CC[C@]12C | inactive: -9.27

Quoted at random: 3 records from the list
Structure (SMILES) | ATP level
O=C1CCO1 | active: 5.91
COc1cc(OC)c(OC)cc1C=O | inactive: 1.15
C[C@@]12C(=O)OC(=O)[C@]1(C)[C@H]1CC[C@@H]2O1 | inactive: -14.1
